Measured values taken from PubChem BioAssay AID2685 (National Center for Advancing Translational Sciences (NCATS), 2010).
The list shows a part of the results. The main result of the screen is listed elsewhere. These columns were measured beside it and carry no call. The list favours compounds with an active or inconclusive main result. Potencies come from curve fits of mixed quality, noted in brackets.

Assay: qHTS Assay for Lipid Storage Modulators in Drosophila S3 Cells;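 for cell number change: cells counted by Cell Tracker Red CMTPX staining in the red channel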
Settings: BODIPY lipid droplet fluorescence, 18-24 h; for cell number change: measured here: cell count max response, cells fed with added oleic acid
Method in brief: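 Drosophila S3 cells loaded with oleic acid (400 uM, as added) and compounds at several concentrations; lipid droplets imaged by 488-nm laser-scanning cytometry, 500–530 nm intensity and object ratio to cell channel. Percent activity normalized to 20 uM Triacsin C.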

[1] = measured here: lipid fluorescence (Fed channel) AC50, cells fed with added oleic acid
[2] = measured here: cell number channel AC50, cells fed with added oleic acid

SMILES	AC50 [1]	cell number change [%]	AC50 [2]
O=C(CCn1[nH]c(=O)c2ccccc2c1=O)NCCO	1.46 µM [falling, partial curve]	–	–
COCC1CCCN(C(=O)c2cc(COc3ccc4ncccc4c3)on2)C1 (stereo unspecified)	6.51 µM [rising, single point]	-23.2	–
C/C(=N\NC(=O)c1c(Br)c(C)nn1C)c1ccc(NC(=O)c2ccoc2C)cc1	1.64 µM [rising, partial curve]	26.1	0.82 µM [rising, full curve, poor fit]
CCc1ccc(NC2=CC(=O)CC(C)(C)C2)cc1	25.9 µM [falling, partial curve, poor fit]	–	–
CC(Sc1nc(-c2ccccc2)nc2c1COC(C)(C)C2)C(=O)N1CCOCC1 (stereo unspecified)	4.61 µM [rising, full curve]	107	8.2 µM [rising, partial curve]
CCOc1cc(CN2CCN(CCOCCO)CC2)ccc1OC	–	-79.8	29.1 µM [falling, single point]
Cc1cc(NC(=O)CSc2nnc(CNC(=O)c3c(F)cccc3F)o2)no1	–	–	1.84 µM [falling, partial curve]
COc1ccc(Nc2nc(N)nc(CSC(=S)N3CCCCC3)n2)cc1	0.58 µM [rising, full curve, poor fit]	25.9	4.61 µM [rising, partial curve, poor fit]
O=C(Nc1ccc(Cl)cc1-c1nc2ccccc2s1)c1ccco1	1.03 µM [falling, partial curve]	–	–
CCOc1cc(C(=O)Nc2ccc(S(=O)(=O)NC3=NCCCCC3)cc2)cc(OCC)c1OCC	–	7.51	–
COc1ccc(CN(CC(=O)NC2CCCC2)C(=O)CCC(=O)Nc2nccs2)cc1	18.4 µM [falling, single point]	-23.8	–
N#Cc1c2c(c(=S)n(-c3ccccc3)c1N)CCCC2	6.51 µM [rising, partial curve, poor fit]	15.3	–
Cc1cc(-n2cnnn2)ccc1C(C)C	–	10.7	–
O=S(=O)(c1cnccc1N1CCN(/N=C/c2ccc(Cl)cc2)CC1)N1CCCCC1	8.2 µM [rising, single point]	2.14	–
O=C(COc1ccc(/C=N/NC(=O)c2ccc(O)cc2)cc1)Nc1cccc([N+](=O)[O-])c1	–	-23	–
CC(=O)c1cccc(NC(=S)N2CCN(S(=O)(=O)c3ccc(F)cc3)CC2)c1	–	9.54	–
O=C(CN(CC1CCCO1)C(=O)CNS(=O)(=O)c1ccc(Cl)cc1)NCc1ccc(F)cc1 (stereo unspecified)	–	2.08	–
O=C(CSc1nnc(-c2ccncc2)n1CCc1ccccc1)N1CCCC1	–	8.39	–
CCCOc1ccc(/C(O)=C2/C(=O)C(=O)N(c3ccccn3)C2c2ccc(OC)cc2)cc1C (stereo unspecified)	10.3 µM [falling, partial curve]	-33.5	16.4 µM [falling, single point]
Cc1cc(-n2c(SCC(=O)Nc3ccc(Br)cc3)nc3n[nH]c(C)c3c2=N)ccc1Cl	18.4 µM [falling, partial curve]	-19.8	–
Cc1cnc(NC(=O)CCc2ccccc2)s1	29.1 µM [rising, single point]	21.4	–

SMILES	AC50 [1]	cell number change [%]	AC50 [2]
COc1ccc(N2CC(C(=O)N3CCN(C)CC3)CC2=O)cc1 (stereo unspecified)	0.58 µM [rising, single point]	-44.4	–
CCOC(=O)C1CCN(C(=O)c2c(-c3c(F)cccc3Cl)noc2C)CC1	1.64 µM [falling, partial curve, poor fit]	-9.6	–
O=C(Nc1ccccc1)Nc1cc(S(=O)(=O)N2CCOCC2)ccc1N1CCCC1	–	10.2	–
COc1ccc(C(C)=O)cc1COc1ccc([N+](=O)[O-])c(C)c1	0.13 µM [falling, full curve, poor fit]	27.2	–
CCOc1ccc(CCNC(=O)COC(=O)c2ccc(C)s2)cc1OCC	3.66 µM [falling, partial curve]	–	3.66 µM [falling, partial curve, poor fit]
O=C1/C(=C/c2cccs2)SC(=S)N1CC(=O)N1CCCCC1CCO (stereo unspecified)	–	–	6.51 µM [rising, single point]
CCC(C)NC(=O)c1ccc(CS(=O)(=O)c2ccc(OC)cc2)o1 (stereo unspecified)	16.4 µM [rising, single point]	34.5	11.6 µM [rising, partial curve, poor fit]
Cc1onc(-c2ccccc2)c1C(=O)Nc1ccc(S(=O)(=O)NC2=NCCCCC2)cc1	0.164 µM [falling, full curve, poor fit]	-7.84	–
Cc1c(C(=O)Nc2ccc(-n3cnnn3)cc2)oc2ccccc12	–	24.5	0.92 µM [rising, full curve, poor fit]
COC(=O)c1sc2nc(SCc3ccccc3C)n(N)c(=O)c2c1C	0.92 µM [rising, full curve]	14	–
COc1ccc(NC(C)=O)cc1NC(=O)C1CCCN1C(=O)c1cccs1 (stereo unspecified)	–	-4.02	–
O=S(=O)(c1ccc(Br)c2ccccc12)N1CCOCC1	0.13 µM [rising, full curve, poor fit]	4.74	–
CN(CCc1ccccn1)C(=S)Nc1ccc(Cl)cc1Cl	6.51 µM [rising, single point]	–	3.66 µM [rising, partial curve]
CCn1nnc(NC(=O)c2ccc([N+](=O)[O-])o2)n1	–	-0.452	–
COc1cc(C(C)=O)ccc1OCC(O)CNCC(O)c1ccccc1 (stereo unspecified)	3.66 µM [rising, full curve, poor fit]	25.5	–
Oc1ccc(Br)cc1CNc1nccs1	–	17.8	2.06 µM [rising, partial curve]
Cc1ccc(S(=O)(=O)Cc2ccc(C(=O)O)o2)cc1	–	-49.6	29.1 µM [falling, single point]
O=C(CN1C(=O)NC2(CCSC2)C1=O)NCc1ccccc1 (stereo unspecified)	–	-31	1.64 µM [falling, partial curve, poor fit]
O=C(c1ccc(S(=O)(=O)Nc2ccccc2)cc1)N1CCCC(C(F)(F)F)C1 (stereo unspecified)	–	4.91	0.259 µM [rising, partial curve, poor fit]
O=C(CSCc1ccc([N+](=O)[O-])cc1)Nc1ccccc1C(=O)O	–	-43.4	29.1 µM [falling, single point]
COC(=O)CN1C(=O)COc2ccc(S(=O)(=O)N3CCOCC3)cc21	6.51 µM [falling, single point]	3.77	–

SMILES	AC50 [1]	cell number change [%]	AC50 [2]
COc1ccccc1-c1cc(C(=O)N/N=C/c2ccc(C)o2)c2ccccc2n1	29.1 µM [rising, partial curve, poor fit]	-22.9	–
Cc1cc(-c2ccc(C)c(S(=O)(=O)NCc3ccc(Br)cc3)c2)on1	23.1 µM [falling, single point]	-12	–
O=C(C1CC(=O)N(c2ccc3c(c2)OCCO3)C1)N1CCCC(C(F)(F)F)C1 (stereo unspecified)	–	31	18.4 µM [rising, single point]
O=C1C2C(C(=O)N1CC1CCCO1)C1C=CC2C12CC2 (stereo unspecified)	0.231 µM [falling, full curve, poor fit]	-40.4	0.231 µM [falling, full curve]
CCOc1ccc(NC(=O)CN2C(=O)COc3ccc(S(=O)(=O)N4CCCC4)cc32)cc1	2.31 µM [rising, partial curve, poor fit]	0.38	2.31 µM [rising, partial curve]
CSc1nsc(SCC(=O)Nc2ccc(F)cc2)n1	–	-16.2	–
c1ccc(COc2ccc(Oc3nc(N4CCCCC4)nc(N4CCOCC4)n3)nn2)cc1	–	-31	29.1 µM [falling, single point]
Cc1cccc(Nc2nc(N)c([N+](=O)[O-])c(N3CC(C)OC(C)C3)n2)c1 (stereo unspecified)	1.84 µM [falling, partial curve, poor fit]	-36.9	16.4 µM [falling, single point]
COc1ccc(C(=O)Nc2n[nH]c(-c3ccncc3)n2)cc1	–	1.38	–
COCCNC(=O)C(=O)c1cc(C)n(-c2ccc([N+](=O)[O-])cc2)c1C	0.58 µM [falling, single point]	–	–
O=C(c1ccc(COc2ccccc2Cl)o1)N1N=C(C(F)F)CC1(O)C(F)F (stereo unspecified)	9.2 µM [falling, partial curve]	-75.8	13 µM [falling, partial curve]
O=C(CNCc1ccc(Cl)cc1)Nc1ccc(C(=O)N2CCCCCC2)cc1	0.231 µM [rising, partial curve, poor fit]	15.1	–
CCn1c2ccccc2c2cc(NC(=O)COC(=O)c3ccc(O)cc3)ccc21	1.84 µM [rising, partial curve, poor fit]	–	–
CC(C)C(=O)NNC(=O)CSc1nnnn1C(C)C	1.84 µM [falling, partial curve]	-0.155	–
O=C(/C=C/c1ccc2c(c1)OCO2)NCc1ccco1	0.366 µM [rising, full curve]	–	–
COc1cc(C2CC(c3cccs3)=NN2C(=O)CCl)ccc1OC(F)F (stereo unspecified)	6.51 µM [falling, single point]	–	–
O=C(CSc1n[nH]c(-c2ccccc2)n1)N1CCOCC1	11.6 µM [falling, single point]	13.5	–
CCCCN1/C(=C/c2cccc[n+]2C)Sc2cc(NC(C)=O)ccc21	0.58 µM [falling, single point]	–	–
NC(=O)SCC(=O)Nc1ccc(Cl)c(Cl)c1	29.1 µM [rising, single point]	36.2	20.6 µM [rising, single point]

Reformatted in CSV form: entries from further up
SMILES,AC50 [1],cell number change [%],AC50 [2]
CC(=O)c1cccc(NC(=S)N2CCN(S(=O)(=O)c3ccc(F)cc3)CC2)c1,–,9.54,–
O=C(CN(CC1CCCO1)C(=O)CNS(=O)(=O)c1ccc(Cl)cc1)NCc1ccc(F)cc1 (stereo unspecified),–,2.08,–
O=C(CSc1nnc(-c2ccncc2)n1CCc1ccccc1)N1CCCC1,–,8.39,–
CCCOc1ccc(/C(O)=C2/C(=O)C(=O)N(c3ccccn3)C2c2ccc(OC)cc2)cc1C (stereo unspecified),"10.3 µM [falling, partial curve]",-33.5,"16.4 µM [falling, single point]"
